Some entries share one result that the patent states for a list of compounds.
Tested on: in vitro metabolism of Compound (I)
Test: Drug-drug interaction on in vitro metabolism
Format: in vitro ADME
Conditions: concomitant drugs

For `O=C1Nc2ccc(Cl)cc2C(c2ccccc2Cl)=NC1O` (stereo not shown) [lorazepam], the IC50 was greater than 50 µM.
